Test results as given in patent EP4057003A1, “SELECTIVE SULFATE ANION DETECTION USING GUANYLATED FLUOROPHORES” (Universidad de Castilla la Mancha, priority 2021, dated 2022).

Experiment: Sulfate quantification in real water samples by fluorescence titration with the fluorophore
Details: for Found value (overall sulfate concentration in the commercial bottle): Commercial mineral water sample
Procedure: For the sulfate anion quantification of real samples, a 5µM test sample aqueous solution of sulfate was prepared from commercial MgSO4 and titrated (n = 3) by the successive addition of small volumes (in the order of microliters) of stock solution of guanylated fluorophore (A) of 1 mM in the quartz cuvette. A similar procedure was carried out for the titration of commercial mineral water samples. These samples of 5.5 and 7.5 µM sulfate anion concentration were prepared by dilutions of commercial mineral water, with labelling sulfate values of 1.20 mM (115 mg/L), in milli-Q water.
Guanylated fluorophore (A) was tested as a sulfate sensor in water samples, with three real sulfate-containing aqueous samples: a) test sample with 5 µM sulfate anion (prepared in the lab from commercial MgSO4), b) two different commercial mineral water samples (5.5 and 7.5 µM respectively) prepared by dilutions in milli-Q water.
Titration was performed by successively adding to 3 mL of an aqueous sample comprising sulfate anions a plurality of equal volumes (3 µL) of a solution of guanylated fluorophore of a known concentration (of 1 mM), gradually increasing the concentration of the guanylated fluorophore in the test sample from 0 to 12 µM. The fluorescence spectrum of the resulting solution after each addition was measured with an excitation wavelength of 272 nm in the range of 300 to 500 nm. For each spectrum the value of fluorescence (F) at its maximum (at 370 nm) was taken. Each F value was divided by the fluorescence value in absence of the guanylated fluorophore (F0) and multiplied by 100 to obtain the % of fluorescence increase in the presence of the guanylated fluorophore ((F/F0)*100). The % fluorescence increase was plotted against the corresponding concentration of the guanylated fluorophore of the resulting solution after each addition of guanylated fluorophore to the sulfate containing aqueous sample (figure 6c). […] The inflection point corresponds to the point wherein the concentration ratio of guanylated fluorophore to sulfate is 1, and therefore the concentration value of the sulfate concentration of the measured sample could be determined.

CC(C)NC(=Nc1ccc2c(c1)Cc1ccccc1-2)NC(C)C [guanylated fluorophore (A), 2-(9H-fluoren-2-yl)-1,3-diisopropylguanidine]
Found value (overall sulfate concentration in the commercial bottle) (labeling value 1.20 mM): 1.26 ± 0.5 mM
Found value (overall sulfate concentration in the commercial bottle) (real value 115 mg/L): 121 mg/L
Found value (sulfate concentration) (Test sample, real value 5 µM, prepared from MgSO4, n = 3): 5.07 ± 0.2 µM
Found value (sulfate concentration) (diluted commercial mineral water sample, 5.5 µM): 5.61 ± 0.1
Found value (sulfate concentration) (diluted commercial mineral water sample, 7.5 µM): 7.42 ± 0.2
LOQ (Limit of quantitation) (ten times the standard deviation of the blank): 0.34 µM
LOD (Limit of detection) (three times the standard deviation of the blank): 0.10 µM
